Data reported in patent publication US11920165B2, “Cultivation of human noroviruses” (Baylor College of Medicine, priority 2015, dated 2024).
At least one compound was matched to its structure with a doubt left.

Tested on: TCH04-577 GII.3 HuNoV
Details: bile acid 100 uM, J2 enteroids

Structure (SMILES) | Fold increase in viral genome copies compared to no bile (0-72 hpi)
C[C@H](CCC(=O)O)[C@H]1CC[C@H]2[C@@H]3CC[C@@H]4C[C@H](O)CC[C@]4(C)[C@H]3C[C@H](O)[C@]12C [DCA, deoxycholic acid] | no increase

Tested on: porcine enteric calicivirus
Details: Chang et al., PNAS 2004; cited from earlier work

Structure (SMILES) | PEC growth
C[C@H](CCC(=O)NCCS(=O)(=O)O)[C@H]1CC[C@H]2[C@@H]3[C@H](O)C[C@@H]4C[C@H](O)CC[C@]4(C)[C@H]3CC[C@]12C [TCDCA, Taurochenodeoxycholic acid] | +
C[C@H](CCC(=O)O)[C@H]1CC[C@H]2[C@@H]3CC[C@@H]4C[C@H](O)CC[C@]4(C)[C@H]3CC[C@]12C [LCA, lithocholic acid] | +
C[C@H](CCC(=O)O)[C@H]1CC[C@H]2[C@@H]3[C@@H](O)C[C@@H]4C[C@H](O)CC[C@]4(C)[C@H]3CC[C@]12C [UDCA, ursodeoxycholic acid] | −
C[C@H](CCC(=O)O)[C@H]1CC[C@H]2[C@@H]3CC[C@@H]4C[C@H](O)CC[C@]4(C)[C@H]3C[C@H](O)[C@]12C [DCA, deoxycholic acid] | +
C[C@H](CCC(=O)NCCS(=O)(=O)O)[C@H]1CC[C@H]2[C@@H]3CC[C@@H]4C[C@H](O)CC[C@]4(C)[C@H]3CC[C@]12C [TLCA, taurolithocholic acid] | +
